Test results taken from patent US20140193338A1, “COMPOUNDS FOR USE IN IMAGING, DIAGNOSING AND/OR TREATMENT OF DISEASES OF THE CENTRAL NERVOUS SYSTEM” (PIRAMAL IMAGING SA, priority 2011, published 2014).

Test system: MAO-B
Assay: PET brain time activity curves (SUV) in cynomolgus monkeys
Format: in vivo, cynomolgus monkey
Details: steady state
Protocol: One monkey weighing 6.3 kg was injected i.v. with 163 MBq [^18F]rasagiline (compound F) under sevofluorane anaesthesia.
Two cynomolgus monkeys weighting 5.25 and 6.2 kg, respectively were investigated. They were injected i.v. under sevofluorane anaesthesia with 168 MBq and 174 MBq [^18F],(^2H2)rasagiline (1), respectively.

For `[2H]C([2H])(C#C)N[C@H]1c2ccccc2C[C@@H]1[18F]` [compound 1, (1S,2S)-2-[^18F]fluoro-N-[(1,1-^2H2)prop-2-yn-1-yl]indan-1-amine], the “decrease in signal intensity versus compound F, striatum” value was 2.9 times and the “decrease in signal intensity versus compound F, thalamus” value was 2.7 times.
